Laboratory results: the supplement of paper PMC10849652
The other results are listed elsewhere or left out.

Experiments:
Experiment in all cases: log2 fold change, soluble protein after heating vs DMSO (PISA); higher = thermal stabilisation; K562 lysate, 10 uM; active = over 0.2 and 3.5 SD of the protein, either way, in both replicates (recomputed)
[1] = compound: CC(=O)c1cnc2ccc(-c3cc(Cl)c(O)c(Cl)c3)nc2c1N[C@H]1CC[C@H](CN(C)C)CC1
Outline: (§1)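 K562 pellets were dounce-homogenised in PBS pH 7.4 with 1 mM MgCl2, and the crude extract at 1 mg/mL protein was treated with 10 μM compound for 30 min. Aliquots were heated for 3 min across 48°C-58°C, pooled, and brought to 0.5% NP-40 at 4°C; soluble protein was the supernatant after 21,000xg for 90 min. Soluble protein was quantified by TMTpro 16plex LC-MS/MS with channel sums equalised, and reported as log2 fold change in thermal stability against DMSO controls, with values from duplicates.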

ralimetinib = compound: CC(C)(C)Cn1c(N)nc2ccc(-c3[nH]c(C(C)(C)C)nc3-c3ccc(F)cc3)nc21 [ralimetinib]
Outline: as §1

[2] = compound: CC(C)(O)CC(=O)NCCn1ccc2ncnc(Nc3ccc(Oc4cccc(C(F)(F)F)c4)c(Cl)c3)c21
Outline: as §1

[3] = compound: CC(C)C1=C2N=C(C=C(N2N=C1)NCC3=CC=CC=C3)NCCCCCCN
Outline: as §1

[4] = compound: CC1=C(C(CC(=O)N1)C2=CC=C(C=C2)C(F)(F)F)C(=O)NC3=C(C=C4C(=C3)C=NN4)F
Outline: as §1

[5] = compound: CC1=C(C2=C(C=C1)C(=O)C3=CC=CC=C3N2CCCN)C
Outline: as §1

[6] = compound: CC1=C(C=C(C=C1)NC(=O)C2=CC(=CC=C2)C(C)(C)C#N)NC3=CC4=C(C=C3)N=CN(C4=O)C
Outline: as §1

[7] = compound: CC1=C(C=C(C=C1)NC(=O)C2=CC(=CC=C2)N(C)C)NC(=O)C3=CC=C(C=C3)O
Outline: as §1

[8] = compound: CC1=CC=C(C=C1)SC2=C3C=C(SC3=CN=C2)C(=O)N
Outline: as §1

Measured: log2 fold change

UNC13B isoform 2 (UniProt O14795)
inactive: [1] -0.054 | ralimetinib 0.003 | [2] -0.032 | [3] -0.08 | [4] -0.089 | [5] -0.061 | [6] -0.032 | [7] 0.024 | [8] 0.034

UHRF2 (UniProt Q96PU4)
inactive: [6] 0.026

VGF (UniProt O15240)
inactive: [3] -0.308 | [5] -0.135

UMAD1 (UniProt C9J7I0)
inactive: [1] -0.066 | ralimetinib 0.005 | [2] 0.027 | [4] -0.078 | [5] -0.045 | [6] 0.1 | [7] 0.079 | [8] -0.017

UNC119 (UniProt Q13432)
inactive: ralimetinib -0.001 | [2] -0.081 | [3] 0.183 | [4] -0.058 | [5] 0.003 | [6] 0.037 | [7] 0.049

UNC13A (UniProt Q9UPW8)
inactive: [3] 0.022 | [4] -0.053

USP36 (UniProt Q9P275)
inactive: [1] -0.242 | ralimetinib 0.061 | [2] 0.045 | [4] -0.054 | [6] -0.093 | [7] 0.156 | [8] -0.102

USP54 (UniProt Q70EL1)
inactive: [6] -0.007

USP6NL isoform 2 (UniProt Q92738)
inactive: [1] 0.004 | [4] -0.046 | [6] -0.005 | [8] 0.013

USP27X (UniProt A6NNY8)
inactive: ralimetinib 0.012 | [2] -0.197 | [6] 0.05 | [7] 0.01
